PubChem BioAssay AID1259331, Drosophila RNAi Screening Center | 2017
Here is an unselected part of about 3,100 deposited reagents. 126 of them (4.1%) were called active. 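Calls are per reagent; zinc was so toxic that few knock-downs lowered ATP further, so most hits raise ATP.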 Raw values vary from plate to plate and are shown uncorrected. Names joined by + are all predicted targets of the reagent. No sequences are given here. The record does not give: the amount of reagent.

Purpose: 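Fly transmembrane-protein genes that affect zinc toxicity in cultured cells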 (primary screen)
Cells: Drosophila S2R+ cells
Knock-down reagent: long dsRNA against Drosophila genes
Time to read-out: 5 days (4 days knock-down, then 1 day zinc)
Challenge: zinc chloride at 15 mM final level for 1 day
Detection: 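Luminescent ATP assay standing in for viability; Z score is the mean over three replicate plates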
Scale: mean Z score: higher = more ATP than other wells, better survival under zinc; ATP luminescence: higher = more ATP, more viable cells
Rule for the call: 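Hit when the absolute Z score is greater than 1.5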
Meaning of the calls: active = hit, ATP up or down; inactive = not a hit

Target gene | dsRNA | mean Z score | ATP luminescence, replicate 1 | ATP luminescence, replicate 2 | call
COX7A | DRSC16514 | 1.01 | 33593 | 68041 | inactive
CG9864 | DRSC07346 | -0.33 | 59174 | 65262 | inactive
CG9864 | DRSC28765 | -0.303 | 55676 | 57802 | inactive
NijB | DRSC09850 | 0.766 | 40536 | 37292 | inactive
NijB | DRSC39587 | -0.0524 | 61609 | 56534 | inactive
phtf | DRSC05023 | -0.375 | 25344 | 29805 | inactive
phtf | DRSC28441 | 0.249 | 63774 | 66703 | inactive
Sys1 + Dhod | DRSC39530 | 1.78 | 76119 | 71368 | active
Sugb | DRSC10815 | -0.0796 | 31450 | 29084 | inactive
Sugb | DRSC39654 | -0.327 | 52367 | 54579 | inactive
hid | DRSC25461 | -0.783 | 45508 | 40331 | inactive
hid | DRSC39717 | -0.435 | 58248 | 54562 | inactive
Or49a | DRSC07493 | -0.0845 | 72517 | 70287 | inactive
Or49a | DRSC39708 | 3.68 | 1.23e5 | 1.13e5 | active
PGRP-LE | DRSC20137 | -0.123 | 42973 | 45320 | inactive
Gr21a | DRSC00366 | -0.36 | 41445 | 40444 | inactive
Gr21a | DRSC28583 | 0.0133 | 63513 | 59647 | inactive
Oatp26F | DRSC02149 | -0.168 | 49934 | 40193 | inactive
Oatp26F | DRSC02695 | -0.42 | 67827 | 66147 | inactive
Oatp26F | DRSC27346 | -0.242 | 50488 | 62467 | inactive
Tspo + rempA | DRSC00533 | -0.424 | 49293 | 51233 | inactive
Sema1b | DRSC07550 | -0.477 | 25622 | 26650 | inactive
Sema1b | DRSC27552 | 0.231 | 62793 | 63256 | inactive
Gli | DRSC03332 | -0.13 | 51629 | 38153 | inactive
Gli | DRSC39818 | -0.472 | 44981 | 54424 | inactive
Tpc2 | DRSC04322 | -0.848 | 26119 | 37896 | inactive
Nup214 | DRSC04421 | -0.716 | 26462 | 26959 | inactive
Nup214 | DRSC39709 | 3.59 | 1.09e5 | 1.15e5 | active
mthl6 | DRSC10234 | -0.345 | 68864 | 55659 | inactive
mthl6 | DRSC39848 | 0.211 | 56413 | 62158 | inactive
dpy | DRSC00233 | -0.381 | 39010 | 38530 | inactive
dpy | DRSC00234 | -0.0878 | 43194 | 43194 | inactive
dpy | DRSC00472 | 0.00497 | 50309 | 41342 | inactive
CG18281 | DRSC11742 | -0.476 | 27751 | 25569 | inactive
CG18281 | DRSC39875 | -0.528 | 51683 | 52915 | inactive
SERCA | DRSC04600 | -0.408 | 24765 | 31245 | inactive
SERCA | DRSC26195 | 0.583 | 55350 | 61504 | inactive
CG14694 | DRSC14917 | -0.126 | 36850 | 53756 | inactive
MFS14 | DRSC29787 | 0.114 | 50909 | 49726 | inactive
MFS14 | DRSC39753 | 1.38 | 79360 | 87646 | inactive
Or33a | DRSC03386 | -0.04 | 49796 | 40842 | inactive
pll | DRSC17026 | -0.834 | 35325 | 35629 | inactive
pll | DRSC28551 | -0.238 | 65725 | 49589 | inactive
bbc | DRSC22309 | 0.219 | 55736 | 58557 | inactive
twz | DRSC04069 | 0.95 | 64165 | 45622 | inactive
twz | DRSC25832 | -0.0699 | 53276 | 54680 | inactive

Active calls, of those listed so far:
Target gene | dsRNA | mean Z score | ATP luminescence, replicate 1 | ATP luminescence, replicate 2 | call
Sys1 + Dhod | DRSC39530 | 1.78 | 76119 | 71368 | active
Or49a | DRSC39708 | 3.68 | 1.23e5 | 1.13e5 | active
Nup214 | DRSC39709 | 3.59 | 1.09e5 | 1.15e5 | active
